Values of other authors in US9956304B2, “Contrast agents, methods for preparing contrast agents, and methods of imaging” (GEORGIA STATE UNIVERSITY RESEARCH FOUNDATION, INC., priority 2012, dated 2018).
At least one compound was matched to its structure with a doubt left. Some of these results come from one statement about several compounds together.

Conditions: cited from earlier work

SMILES | per Gd relaxivity (r1) | relaxivities | relaxivity
CCOc1ccc(CC(CN(CCN(CC(=O)[O-])CC(=O)[O-])CC(=O)[O-])N(CC(=O)[O-])CC(=O)[O-])cc1.[Gd+3].[Na+].[Na+] (stereo not shown) [Eovist, Gd-EOB-DTPA] | 4 to 6 mM⁻¹ s⁻¹ |  | 
O=C([O-])CN(CCN(CC(=O)[O-])CC(=O)O)CCN(CC(=O)[O-])CC(=O)O.[Gd+3] [Gd-DTPA] |  | less than 5 mM^−1 s^−1 | less than 5 s^−1 mM^−1
CNC[C@H](O)[C@@H](O)[C@H](O)[C@H](O)CO.CNC[C@H](O)[C@@H](O)[C@H](O)[C@H](O)CO.O=C([O-])CN(CCN(CC(=O)[O-])CC(=O)O)CCN(CC(=O)O)C(COCc1ccccc1)C(=O)[O-].[Gd+3] (stereo not shown) [Multihance, Gd-BOPTA] | 4 to 6 mM⁻¹ s⁻¹ |  | 
